These results are taken from the supplement of paper PMC7877785.

± gives the uncertainty stated by the source. The uncertainty is large for many entries.

This series can be described thus: self-splicing fitness, log relative to wild type (ln ratio); higher = more splicing; Tetrahymena group I intron in knt gene, E. coli kanamycin selection, DiMSum; sequences stand for … in CUCUCU…GGAGGGAAAAGUUAUCAGGCAUGCACCUGGUAGCUAGUCUUUAAACCAAUAGAUUGCAUCGGUUUAAAAGGCAAGACCGUCAAAUUGCGGGAAAGGGGUCAACAGCCGUUCAGUACCAAGUCUCAGGGGAAACUUUGAGAUGGCCUUGCAAAGGGUAUGGUAAUAAGCUGACGGACAUGGUCCUAACCACGCAGCCAAGUCCUAAGUCAACAGAUCUUCUGUUGAUAUGGAUGCAGUUCACAGACUAAAUGUCGGUCGGGGAAGAUGUAUUCUUCUCAUAAGAUAUAGUCGGACCUCUCCUUAAUGGGAGCUAGCGGAUGAAGUGAUGCAACACUGGAGCCGCUGGGAACUAAUUUGUAUGCGAAAGUAUAUUGAUUAGUUUUGGAGUACUCGUGGUCG
A digest of the protocol:
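Fitness was computed with DiMSum as the error-weighted combination of replicate fold changes, kanamycin versus none, each normalised to wild type. The library randomised all eight intron nucleotides of the P1ex region, with the intron placed in the knt kanamycin-resistance gene on pET-22b(+) in E. coli BL21(DE3). Six replicate transformations were grown overnight at 37°C or 30°C on LB agar with or without 25 μg/mL kanamycin, plus 100 μg/mL carbenicillin, 50 μM IPTG and 0.2% rhamnose. Pooled colonies were amplicon-sequenced on an Illumina HiSeq 2500.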

Take AGCGAGCAAUAUUACGCACG: the “self-splicing fitness (ln)” value (37 °C) is -2.32 ± 0.67.
As for CCGUAGCAAUAUUACGACCA, the “self-splicing fitness (ln)” value (37 °C) was -2.5 ± 0.64.
As to CCGCAGCAAUAUUACGCUGC, the “self-splicing fitness (ln)” value (30 °C) was -4.56 ± 0.59 and the “self-splicing fitness (ln)” value (37 °C) was -2.89 ± 1.1.
Regarding UCGCAGCAAUAUUACGGUCC, the “self-splicing fitness (ln)” value (30 °C) is -4.51 ± 0.58.
For CGGAAGCAAUAUUACGCAAA, the “self-splicing fitness (ln)” value (30 °C) is -3.8 ± 1.
Consider CUGAAGCAAUAUUACGCCUC, for which the “self-splicing fitness (ln)” value (37 °C) is -2.55 ± 0.63.
With CCGUAGCAAUAUUACGUCAC, under “37 °C”, the “self-splicing fitness (ln)” value was -3.02 ± 0.75.
With GUCAAGCAAUAUUACGCCAA, the “self-splicing fitness (ln)” value (30 °C) was -2.79 ± 1.2.
For the sequence UAGUAGCAAUAUUACGAUAC, under “37 °C”, the “self-splicing fitness (ln)” value is -2.32 ± 0.63.
For the sequence CGUUAGCAAUAUUACGCCCC, the “self-splicing fitness (ln)” value was -2.79 ± 1.2 (30 °C) and 0.0743 ± 0.81 (37 °C).
As for AGCCAGCAAUAUUACGAAAA, the “self-splicing fitness (ln)” value (30 °C) is -3.76 ± 0.52.
As to CACUAGCAAUAUUACGAGAC, for the setting “37 °C”, the “self-splicing fitness (ln)” value was -2.31 ± 1.1.
Regarding AUCGAGCAAUAUUACGAUUC, where the note is “37 °C”, the “self-splicing fitness (ln)” value was -2.4 ± 0.63.
Take GAGGAGCAAUAUUACGCUAG: for the setting “30 °C”, the “self-splicing fitness (ln)” value was -4.45 ± 0.73.
Consider UUCUAGCAAUAUUACGGGAC, for which the “self-splicing fitness (ln)” value by setting is: (30 °C) -3.17 ± 0.59; (37 °C) -1.06 ± 0.71.
For CAGUAGCAAUAUUACGGUGA the same measures were -4.04 ± 0.31 and -2.58 ± 0.24.
For the sequence UGGGAGCAAUAUUACGCGAU, where the note is “30 °C”, the “self-splicing fitness (ln)” value was -3.12 ± 1.1.
Consider GGGGAGCAAUAUUACGAGUU, for which, for the setting “37 °C”, the “self-splicing fitness (ln)” value is -3.27 ± 0.6.
For the sequence CGGCAGCAAUAUUACGUCGC, the “self-splicing fitness (ln)” value (30 °C) is -3.6 ± 1.
With CGGGAGCAAUAUUACGACCA, the “self-splicing fitness (ln)” value (37 °C) is -1.48 ± 0.84.
On to CAUUAGCAAUAUUACGGCCU, for which the “self-splicing fitness (ln)” value runs as follows: (30 °C) -3.52 ± 0.18; (37 °C) -2.21 ± 0.21.
On to AGGGAGCAAUAUUACGCUCC, for which the “self-splicing fitness (ln)” value (30 °C) is -1.12 ± 0.76 and the “self-splicing fitness (ln)” value (37 °C) is -1.64 ± 0.69.
For GUUAAGCAAUAUUACGGCAG, the “self-splicing fitness (ln)” value reads like this: (30 °C) -2.99 ± 0.61; (37 °C) -2.76 ± 0.53.
For ACAUAGCAAUAUUACGCUCC, in that order: -1.62 ± 0.17 and -2.05 ± 0.23.
With UUGGAGCAAUAUUACGGGAU, the “self-splicing fitness (ln)” value (30 °C) was -4.03 ± 0.73.
Consider AGGCAGCAAUAUUACGACGG, for which the “self-splicing fitness (ln)” value runs as follows: (30 °C) -2.49 ± 0.16; (37 °C) -0.746 ± 0.22.
Take GCGCAGCAAUAUUACGUGGA: the “self-splicing fitness (ln)” value was -1.48 ± 0.098 (30 °C) and -0.745 ± 0.098 (37 °C).
Take AAUUAGCAAUAUUACGAGAC: the “self-splicing fitness (ln)” value (30 °C) was -3.78 ± 0.53.
Consider GGAGAGCAAUAUUACGGAUU, for which the “self-splicing fitness (ln)” value (30 °C) was -4.8 ± 0.58 and the “self-splicing fitness (ln)” value (37 °C) was -1.62 ± 0.22.
Take UGGCAGCAAUAUUACGCGCC: the “self-splicing fitness (ln)” value (30 °C) is -5.63 ± 0.5.
In the case of AAUAAGCAAUAUUACGAAGC, the “self-splicing fitness (ln)” value (37 °C) is -2.59 ± 0.54.
Regarding UGAUAGCAAUAUUACGUAUC, the “self-splicing fitness (ln)” value is, setting by setting: (30 °C) -2.67 ± 0.48; (37 °C) -3.39 ± 1.
For CCGAAGCAAUAUUACGCAAC the same measures were -4.03 ± 0.59 and -2.63 ± 0.54.
GAAGAGCAAUAUUACGUCAG: the “self-splicing fitness (ln)” value is -3.58 ± 0.2 (30 °C) and -3.03 ± 0.35 (37 °C).
Consider GUCUAGCAAUAUUACGAGGU, for which the “self-splicing fitness (ln)” value (30 °C) is -4.1 ± 1.
For the sequence GCGCAGCAAUAUUACGCGAU, the “self-splicing fitness (ln)” value (30 °C) was -2.97 ± 0.53.
In the case of UUGGAGCAAUAUUACGGAAG, for the setting “37 °C”, the “self-splicing fitness (ln)” value is -2.84 ± 0.53.
As to GCGGAGCAAUAUUACGGCUA, the “self-splicing fitness (ln)” value (30 °C) was -2.01 ± 0.52.
In the case of CGUAAGCAAUAUUACGUCUU, the “self-splicing fitness (ln)” value is, setting by setting: (30 °C) -3.7 ± 0.22; (37 °C) -1.37 ± 0.14.
Regarding CGUUAGCAAUAUUACGCUUU, where the note is “30 °C”, the “self-splicing fitness (ln)” value is -3.86 ± 1.
As for GUGUAGCAAUAUUACGACCG, the “self-splicing fitness (ln)” value (30 °C) worked out at 1.08 ± 1.
As for AGGAAGCAAUAUUACGUCCC, the “self-splicing fitness (ln)” value reads like this: (30 °C) -3.58 ± 1; (37 °C) -1.96 ± 0.66.
CUUUAGCAAUAUUACGACCA: the “self-splicing fitness (ln)” value was -2.33 ± 0.56 (30 °C) and -2.16 ± 1.1 (37 °C).
As for GUGGAGCAAUAUUACGGCCA, the “self-splicing fitness (ln)” value (30 °C) is -1.41 ± 0.63.
Take CUGCAGCAAUAUUACGCCAA: for the setting “30 °C”, the “self-splicing fitness (ln)” value was -3.1 ± 0.76.
Consider UAGGAGCAAUAUUACGGUAC, for which the “self-splicing fitness (ln)” value (30 °C) was -4.4 ± 1 and the “self-splicing fitness (ln)” value (37 °C) is -3.31 ± 0.6.
Consider AGAGAGCAAUAUUACGAGUA, for which the “self-splicing fitness (ln)” value (30 °C) was -3.32 ± 0.52.
Regarding GGUCAGCAAUAUUACGUCAC, the “self-splicing fitness (ln)” value (30 °C) was -2.8 ± 0.51.
For the sequence UGUGAGCAAUAUUACGGAGG, the “self-splicing fitness (ln)” value is -3.33 ± 0.29 (30 °C) and -2.11 ± 0.34 (37 °C).
